Where “and” joins values, the source holds several entries; their conditions need not be identical. Equal entries are not always repeated. Out of some 400,000 compounds screened, about 13,000 (3.2%) were called active. The shares of active, inactive and inconclusive entries below differ from those in the screen. Calls come from the whole dose curve; as a rule, active = well fitted cell-killing curve with a large enough effect; inconclusive = small, poorly fitted or top-dose-only effect, or effect the other way; inactive = flat fitted curve, though single readings scatter. Potencies of inconclusive entries are doubtful fits and often do not repeat.
Assay: qHTS assay for MDR1-selective chemotherapeutics: Primary screen using the drug-selected MDR subline cells KB-V1; note: nearly all actives have a fitted effect of over 60% in size
Conditions: KB-V1 MDR cells viability, CellTiter-Glo, 72 h; series mostly up to 46.1 µM
How it was run: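 KB-V1 cells (P-gp-expressing MDR subline of KB-3-1) in phenol-red-free DMEM with 10% FBS were exposed to library compounds over a concentration series for 72 h at 37 degrees C. Viability read by CellTiter-Glo luminescence; concentration-effect curves fitted after normalization.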
Potency is the fitted concentration of half-maximal effect.

Structure (SMILES)	Potency
CSc1ccc(NC(=O)N2CCC(C(=O)c3ccc(F)cc3)CC2)cc1	inconclusive: 29.1 µM [cytotoxic, single point]
COc1ccc(S(=O)(=O)N2CCN(CC(=O)Nc3c(C)n[nH]c3C)CC2)cc1OC	inactive
Cc1ccccc1S(=O)(=O)c1cc2ccccc2nc1N	inconclusive: 20.6 µM [cytotoxic, single point]
COc1ccc(-c2cc(C(=O)Oc3cccc(C)c3)c3cc(C)ccc3n2)cc1	inconclusive: 32.6 µM [rising, single point]
CC1CCC(NC(=O)C2(C)CCC(=O)N2Cc2cccnc2)CC1 (stereo not given)	inconclusive: 29.1 µM [rising, single point]
O=C(c1ccccc1)N1CCN(c2ncnc3c2cnn3-c2ccccc2)CC1	inactive
CC1CCCC(C)N1c1ccc(S(=O)(=O)N2CCOCC2)cc1Cl (stereo not given)	inconclusive: 16.4 µM [cytotoxic, single point]
Cc1cc(=S)cc(C)n1CCO	inconclusive: 29.1 µM [rising, single point]
Cc1cccc(C(=O)N2CCC(=O)N([C@H](COCc3cccc(C(F)(F)F)c3)Cc3ccccc3)CC2)c1	active: 23.1 µM
COc1ccc([C@H]2CC(=O)C=C(c3cc4ccccc4s3)C2)cc1OC	inconclusive: 23.1 µM [cytotoxic, partial curve, poor fit]
O=S(=O)(Nc1cccc2cccnc12)c1ccc(S(=O)(=O)N2CCCC2)cc1	inconclusive: 5.8 µM [cytotoxic, partial curve, poor fit]
Cc1ccc(NC(=S)NNC(=O)c2nnn(-c3ccccc3)c2C)cc1	active: 20.6 µM
COc1ccc(-c2cc(C(=O)Nc3sc4c(c3C#N)CCCC4)c3ccccc3n2)cc1	inconclusive: 8.2 µM [cytotoxic, partial curve]
COc1ccc(NC(=O)CCCC(=O)NCCc2ccc(OC)c(OC)c2)cc1	inactive
Cc1ccc(S(=O)(=O)/N=C(\c2ccc(F)cc2)n2c(C)nc3ccccc32)cc1	inconclusive: 14.6 µM [rising, partial curve]
Cc1ccc(C2c3[nH]c4ccccc4c3C[C@H]3C(=O)N(c4ccccc4C(=O)N4CCC[C@@H]4C(=O)O)C(=O)N23)cc1 (stereo not given in full)	inconclusive: 5.8 µM [rising, partial curve, poor fit]
CCOc1ccc(CCNC(=O)c2[nH]c(C)c(C(C)=O)c2CC)cc1OCC	inconclusive: 7.31 µM [cytotoxic, partial curve, poor fit]
COc1cc2c(cc1NC(=O)COC(=O)[C@@H](NS(=O)(=O)c1cccc(Cl)c1)C(C)C)oc1ccccc12	active: 23.1 µM
CN1C(=O)C2(c3ccccc31)N(C)CC(c1ccccn1)C21SC(=S)N(Cc2ccco2)C1=O (stereo not given)	inconclusive: 23.1 µM [cytotoxic, single point]
Cc1ccccc1CSCC(=O)NC1CCCC1	inactive

Rewritten with bars between the fields: entries from further up.
Structure (SMILES) | Potency
CSc1ccc(NC(=O)N2CCC(C(=O)c3ccc(F)cc3)CC2)cc1 | inconclusive: 29.1 µM [cytotoxic, single point]
COc1ccc(S(=O)(=O)N2CCN(CC(=O)Nc3c(C)n[nH]c3C)CC2)cc1OC | inactive

Following part.

Structure (SMILES)	Potency
CCOC(=O)[C@]12CCCC=C1N(CCC1=CCCCC1)C(=O)[C@H](CC(=O)N1CCN(C(=O)c3ccco3)CC1)C2	inconclusive: 2.31 µM [cytotoxic, partial curve]
COc1ccc(-c2cc(C(F)(F)F)nc(SCC(=O)N3CCCCC3C)n2)cc1OC (stereo not given)	inconclusive: 4.61 µM [cytotoxic, full curve]
CCc1cccc(C)c1NC(=O)C1CCN(c2nn3c(=O)cc(C)nc3s2)CC1	inconclusive: 2.31 µM [rising, full curve] and inconclusive: 6.51 µM [rising, full curve]
Cc1cc(Oc2ccc(OCC(N)=O)nn2)nc(Cl)n1	inconclusive: 6.51 µM [rising, partial curve, poor fit]
COc1cc2c(cc1OC)C(c1cccc([N+](=O)[O-])c1)=NCC2	inconclusive: 18.4 µM [cytotoxic, single point]
CC(C)C[C@H]1CN([C@@H](Cc2ccccc2)CN2CCC[C@H]2CN2C(=O)C(=O)NC[C@@H]2Cc2ccc(O)cc2)C(=O)C(=O)N1CC1CCCCC1	inactive
NC(=O)C1CCN(c2oc(-c3ccccc3F)nc2S(=O)(=O)c2ccc(Cl)cc2)CC1	inconclusive: 16.4 µM [cytotoxic, single point]
CCCN(C)C[C@H]1OCc2cnnn2CCCC(=O)N([C@H](C)CO)C[C@@H]1C	inactive
CCOc1cccc(C(=O)Nc2ccc3[nH]ncc3c2)c1	inconclusive: 0.58 µM [rising, full curve]
CCOC(=O)n1c(=O)oc2cc(S(=O)(=O)N3CCCCC3)ccc21	active: 23.1 µM
COc1ccccc1NS(=O)(=O)c1ccc(N2CCOCC2)c(NC(=O)c2ccco2)c1	inconclusive: 7.31 µM [cytotoxic, partial curve]
O=C(/C=C/c1ccc(OCc2c(F)cccc2Cl)cc1)N1CCOCC1	inconclusive: 20.6 µM [cytotoxic, single point]
Cc1ccc2oc(=O)c3cc(C(=O)Nc4ccccc4C(N)=O)sc3c2c1	inactive
COc1ccc(-c2cc(=O)[nH]c3ccccc23)cc1	inconclusive: 16.4 µM [cytotoxic, partial curve, poor fit]
Cc1ccc2oc(C(=O)Nc3ccc(S(=O)(=O)Nc4onc(C)c4C)cc3)c(C)c2c1	inconclusive: 5.17 µM [rising, full curve]
Cc1ccc2oc(-c3cccc(NC(=O)COc4ccc(Cl)cc4C)c3C)nc2c1	inconclusive: 11.6 µM [rising, partial curve, poor fit]
CCOc1ccc(NC(=O)Cn2nc(C(N)=O)c3ccccc3c2=O)cc1S(=O)(=O)N1CCCC1	inconclusive: 29.1 µM [rising, single point]
COc1ccc(S(=O)(=O)c2c(O)c3ccc(C(=O)NCc4ccccc4)cc3[nH]c2=O)cc1	inactive
C=CCc1cccc(C=Nc2cc(Br)ccc2O)c1O	inconclusive: 29.1 µM [cytotoxic, single point]
C=CCNc1ncnc2c1ncn2[C@H]1CN(CCN2CCOCC2)C[C@@H](CO)O1	inactive

From PubChem BioAssay AID1347076 (National Center for Advancing Translational Sciences (NCATS), 2019)
